Laboratory results taken from paper PMC9414874, “New Benzimidazoles Targeting Breast Cancer: Synthesis, Pin1 Inhibition, 2D NMR Binding, and Computational Studies” (Molecules, 2022).

Sequences of proteins named here, by UniProt entry; tags and fusion partners are left off.
UniProt Q13526, whole entry: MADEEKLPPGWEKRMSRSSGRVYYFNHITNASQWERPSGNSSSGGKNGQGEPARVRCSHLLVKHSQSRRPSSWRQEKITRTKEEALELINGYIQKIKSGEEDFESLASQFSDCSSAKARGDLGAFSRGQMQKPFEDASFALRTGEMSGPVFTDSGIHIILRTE

Biological target: Pin1 (Homo sapiens, UniProt Q13526)
Experiment: Pin1 inhibition assay (SensoLyte Green Pin1 Assay Kit)

Pin1 %inh (conc 1 ng/ml): 49.1%
Pin1 %inh (conc 100 ng/ml): 84.8%
SMILES: CN(C)c1ccc(C2CC(c3nc4cc(Cl)c(Cl)cc4[nH]3)=NO2)cc1 (centres unmarked) [Compound 8, 4-(3-(5,6-Dichloro-1H-benzo[d]imidazol-2-yl)-4,5-dihydroisoxazol-5-yl)-N,N-dimethylaniline]

Structures were worked out from names or drawings and are uncertain.
